According to patent publication US20210169936A1 (AFFIMED, published 2021):
No constants are given. Whether binding was seen depends on the method and setting. Blank lines part the entries; values can stand above or below the binder they belong to.

Molecular target: huCD16B (NA1)mat, GPI anchored (human)
Experiment: flow cytometry, MFI in cell binding to recombinant CHO cells; antigen GPI anchored

binding: no binding
B1: EGFR-1 scFv (scFv)
scFv: QVQLQESGPGLVKPSETLSLTCTVSGGSVSSGSYYWSWIRQPPGKGLEWIGYIYYSGSTNYNPSLKSRVTISVDTSKNQFSLKLSSVTAADTAVYYCARNPISIPAFDIWGQGTMVTVSSGGSGGSGGSGGSGGSGGSQPVLTQPPSVSVAPGKTARITCGGNNIGSKSVHWYQQKPGQAPVLVIYYDSDRPSGIPERFSGSNSGNTATLTISRVEAGDEADYYCQVWDTSSDHVLFGGGTKLTVLAAAGSHHHHHH
notes: also called scFv EGFR (EGFR-1); control scFv

binding: no binding
B2: scFv CD16A (CD16-2) (scFv)
scFv: QVQLVQSGAEVKKPGESLKVSCKASGYTFTSYYMHWVRQAPGQGLEWMGAIEPMYGSTSYAQKFQGRVTMTRDTSTSTVYMELSSLRSEDTAVYYCARGSAYYYDFADYWGQGTLVTVSSGGSGGSGGSGGSGGSGGSSYVLTQPSSVSVAPGQTATISCGGHNIGSKNVHWYQQRPGQSPVLVIYQDNKRPSGIPERFSGSNSGNTATLTISGTQAMDEADYYCQVWDNYSVLFGGGTKLTVLAAAGSHHHHHH
notes: also called CD16-2 scFv
